Measurements reported in PubChem BioAssay AID652259 (Drosophila RNAi Screening Center, 2013)
Screen: 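Genome-wide hunt for genes that control Wingless pathway activity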 (primary screen). Cells: Drosophila clone 8 imaginal disc epithelial cells. Reagent: long dsRNA against Drosophila genes. Challenge: pathway stimulated by co-transfected Wingless expression plasmid. Detection: 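Dual luciferase reads per well after Wingless plasmid stimulation: reporter firefly light and Renilla control light; activity is firefly divided by Renilla, a ratio not deposited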. Direction: firefly reporter light: higher = more Wg reporter light, before normalisation; Renilla control light: higher = more transfected or surviving cells. Active means: 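Strong candidates differ from their plate mean by at least two out of four per-plate statistical tests; weak candidates meet just one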. Calls: active = candidate regulator (raises or lowers reporter); inactive = not a candidate.
The deposit covers about 22,000 reagents; shown is a random part of those that have a named target and a result. Over the whole deposit, 233 (1.1%) were called active. 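Light values are raw, unnormalised plate reads; the ratio scores behind the reporter calls were not deposited.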 The numbers tell different reagents against one gene apart. Names joined by + are all predicted targets of the reagent. Not given: the amount of reagent, the time to read-out, the dose of the treatment.

target | dsRNA no. | firefly reporter light, replicate 1 | firefly reporter light, replicate 2 | Renilla control light, replicate 1 | Renilla control light, replicate 2 | Call
Wdr24 | 1 | 2371 | 5216 | 1074 | 1734 | inactive
Gapdh2 | 1 | 17620 | – | 8374 | – | inactive
Oxp | 1 | 6225 | – | 2257 | – | inactive
Daxx | 1 | 13003 | – | 6182 | – | inactive
didum | 1 | 1859 | 6788 | 576 | 2163 | inactive
CG14187 | 1 | 16587 | – | 4464 | – | inactive
galectin | 1 | 2449 | 5939 | 1027 | 2763 | inactive
CG7423 | 1 | 18723 | – | 9706 | – | inactive
CG33191 + Pif1B | 1 | 2243 | – | 915 | – | inactive
O-fut1 | 1 | 17318 | – | 5212 | – | inactive
Lar | 1 | 15815 | – | 10525 | – | inactive
Lar | 2 | 8280 | – | 2359 | – | inactive
sing | 1 | 19597 | – | 8739 | – | inactive
Caf1-180 | 1 | 6699 | 7542 | 1131 | 1560 | inactive
tbrd-1 | 1 | 13937 | – | 10186 | – | inactive
CG9525 | 1 | 3101 | 6491 | 832 | 3453 | inactive
Pal1 + Pdrg1 | 1 | 2907 | 4813 | 800 | 2048 | inactive
Patsas | 1 | 12273 | – | 3900 | – | inactive
CG4168 | 1 | 29132 | – | 11739 | – | inactive
CG4168 | 2 | 14497 | – | 7129 | – | inactive
CG4168 | 3 | 6936 | – | 1952 | – | inactive
CG4168 | 4 | 4.18e5 | 5.60e5 | 2.22e5 | 2.06e5 | inactive
CG4168 | 5 | 6.98e5 | 7.59e5 | 2.41e5 | 1.77e5 | inactive
vito | 1 | 2.28e5 | 3.12e5 | 88296 | 86447 | inactive
Cngl | 1 | 5552 | – | 839 | – | inactive
Cngl | 2 | 1992 | 4455 | 717 | 1541 | inactive
Cngl | 3 | 23030 | – | 11922 | – | inactive
Mmp2 | 1 | 3696 | 9568 | 1144 | 4477 | inactive
Mmp2 | 2 | 7.68e5 | 7.61e5 | 3.44e5 | 3.92e5 | inactive

10 entries from above, set out differently:
{"target": "CG9525", "dsRNA no.": 1, "firefly reporter light, replicate 1": 3101, "firefly reporter light, replicate 2": 6491, "Renilla control light, replicate 1": 832, "Renilla control light, replicate 2": 3453, "Call": "inactive"}
{"target": "Pal1 + Pdrg1", "dsRNA no.": 1, "firefly reporter light, replicate 1": 2907, "firefly reporter light, replicate 2": 4813, "Renilla control light, replicate 1": 800, "Renilla control light, replicate 2": 2048, "Call": "inactive"}
{"target": "Patsas", "dsRNA no.": 1, "firefly reporter light, replicate 1": 12273, "Renilla control light, replicate 1": 3900, "Call": "inactive"}
{"target": "CG4168", "dsRNA no.": 1, "firefly reporter light, replicate 1": 29132, "Renilla control light, replicate 1": 11739, "Call": "inactive"}
{"target": "CG4168", "dsRNA no.": 2, "firefly reporter light, replicate 1": 14497, "Renilla control light, replicate 1": 7129, "Call": "inactive"}
{"target": "CG4168", "dsRNA no.": 3, "firefly reporter light, replicate 1": 6936, "Renilla control light, replicate 1": 1952, "Call": "inactive"}
{"target": "CG4168", "dsRNA no.": 4, "firefly reporter light, replicate 1": 4.18e5, "firefly reporter light, replicate 2": 5.60e5, "Renilla control light, replicate 1": 2.22e5, "Renilla control light, replicate 2": 2.06e5, "Call": "inactive"}
{"target": "CG4168", "dsRNA no.": 5, "firefly reporter light, replicate 1": 6.98e5, "firefly reporter light, replicate 2": 7.59e5, "Renilla control light, replicate 1": 2.41e5, "Renilla control light, replicate 2": 1.77e5, "Call": "inactive"}
{"target": "vito", "dsRNA no.": 1, "firefly reporter light, replicate 1": 2.28e5, "firefly reporter light, replicate 2": 3.12e5, "Renilla control light, replicate 1": 88296, "Renilla control light, replicate 2": 86447, "Call": "inactive"}
{"target": "Cngl", "dsRNA no.": 1, "firefly reporter light, replicate 1": 5552, "Renilla control light, replicate 1": 839, "Call": "inactive"}

Additional entries:
target | dsRNA no. | firefly reporter light, replicate 1 | firefly reporter light, replicate 2 | Renilla control light, replicate 1 | Renilla control light, replicate 2 | Call
Der-1 | 1 | 10018 | – | 4493 | – | inactive
Sec63 | 1 | 1716 | 9859 | 1635 | 3751 | inactive
chk | 1 | 8146 | – | 2921 | – | inactive
snky | 1 | 7154 | – | 2711 | – | inactive
Ir56b | 1 | 6171 | – | 2093 | – | inactive
Sf3a2 | 1 | 7270 | – | 1176 | – | inactive
CG9265 | 1 | 2560 | 7233 | 946 | 2773 | inactive
CG9265 | 2 | 3584 | 7072 | 1009 | 2589 | inactive
CG32686 | 1 | 6331 | – | 1324 | – | inactive
CG10252 | 1 | 2387 | 7884 | 928 | 1840 | inactive
Elba3 | 1 | 13840 | – | 6010 | – | inactive
Sirt1 | 1 | 6649 | – | 1680 | – | inactive
trsn | 1 | 1561 | 6887 | 579 | 2537 | inactive
Osi21 | 1 | 3017 | 8977 | 893 | 2282 | inactive
CG13131 | 1 | 2827 | 8128 | 976 | 3776 | inactive
CG4363 | 1 | 2264 | 9370 | 589 | 2546 | inactive
CG17192 | 1 | 6212 | – | 2748 | – | inactive
Pus1 | 1 | 19755 | – | 5287 | – | inactive
CG3527 | 1 | 19680 | – | 10188 | – | inactive
fd102C | 1 | 27354 | – | 18807 | – | inactive
Vha16-5 | 1 | 2992 | 9067 | 1325 | 4694 | inactive
CG33128 | 1 | 3616 | 8608 | 1623 | 3994 | inactive
Ciao1 | 1 | 12960 | – | 4765 | – | inactive
CG11600 | 1 | 17490 | – | 3920 | – | inactive
CG42855 | 1 | 6460 | – | 2744 | – | inactive
CG33468 | 1 | 5.22e5 | 5.75e5 | 2.34e5 | 1.96e5 | inactive
CG14000 + bchs | 1 | 1847 | 6208 | 656 | 1383 | inactive
out | 1 | 2456 | 6912 | 940 | 2450 | inactive
CG11374 | 1 | 2768 | 6713 | 1121 | 2634 | inactive
CG9281 | 1 | 1537 | 6172 | 1117 | 2658 | inactive
trr | 1 | 2224 | 4756 | 567 | 1193 | inactive
Spn38F | 1 | 4685 | 9187 | 1217 | 3212 | inactive
CG31832 | 1 | 7.75e5 | 7.40e5 | 3.10e5 | 3.02e5 | inactive
Scgdelta | 1 | 21505 | – | 18112 | – | inactive
HisCl1 | 1 | 7339 | – | 2473 | – | inactive
CG14820 | 1 | 3611 | 7068 | 2080 | 5749 | inactive
CG17768 + LSm-4 | 1 | 2528 | 6467 | 632 | 2560 | inactive
CG6813 | 1 | 18089 | – | 3445 | – | inactive
CG3040 | 1 | 4.98e5 | 4.73e5 | 2.23e5 | 1.97e5 | inactive
CG14618 | 1 | 21680 | – | 9217 | – | inactive
Lcp65APsi | 1 | 5907 | – | 2022 | – | inactive
Lcp65APsi | 2 | 1194 | 11176 | 1090 | 3941 | inactive
CG18094 | 1 | 1897 | 6760 | 612 | 2072 | inactive
CG14483 | 1 | 7654 | – | 3205 | – | inactive
